# Experimental data: the supplement of paper PMC5355238
# Where a name gives a salt, the structure may show the parent alone. Some of the results follow. Most entries show no effect beyond the scatter of the controls.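 Reh, a human leukemia cell line, is read out by flow cytometry as the median γH2AX antibody signal in S-phase cells; the score counts standard deviations from the median difference of each paired plate set. Scores above 2.5 were candidate hits; scores below -2 mark compounds lowering MK1775-induced damage.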
# Test system: Reh
# Experiment: Z' of S-phase gammaH2AX difference (drug + MK1775 minus drug alone) (Z-score); higher = stronger synergistic S-phase DNA damage with MK1775
# Settings: MK1775 concentration 400 nM; first compound 10 µM; 4 h
row,SMILES,Z' of S-phase gammaH2AX difference (Z-score)
1,Cc1ccccc1N1CCN(S(=O)(=O)C[C@]23CC[C@H](CC2NC(=O)[C@@H](N)CCS(C)(=O)=O)C3(C)C)CC1 (stereo partly drawn) + C=CCn1c(=O)c2cnc(Nc3ccc(N4CCN(C)CC4)cc3)nc2n1-c1cccc(C(C)(C)O)n1 [MK1775],inactive: 0.109
2,O=C1N=C(O)NC1(c1ccccc1)c1ccccc1 [Phenytoin sodium] + C=CCn1c(=O)c2cnc(Nc3ccc(N4CCN(C)CC4)cc3)nc2n1-c1cccc(C(C)(C)O)n1 [MK1775],inactive: -0.721
3,NCCC(=O)NCCc1c[nH]cn1 [Carcinine dihydrochloride] + C=CCn1c(=O)c2cnc(Nc3ccc(N4CCN(C)CC4)cc3)nc2n1-c1cccc(C(C)(C)O)n1 [MK1775],inactive: -0.565
4,COc1cc2c(cc1OC)-c1c/c(=N\c3c(C)cc(C)cc3C)n(C)c(=O)n1CC2 [Trequinsin hydrochloride] + C=CCn1c(=O)c2cnc(Nc3ccc(N4CCN(C)CC4)cc3)nc2n1-c1cccc(C(C)(C)O)n1 [MK1775],inactive: -0.282
5,Oc1nc(-c2ccc(C(F)(F)F)cc2)nc2c1CSCC2 + C=CCn1c(=O)c2cnc(Nc3ccc(N4CCN(C)CC4)cc3)nc2n1-c1cccc(C(C)(C)O)n1 [MK1775],inactive: -0.0584
6,O=C1OC(=O)[C@H]2[C@@H]1[C@@H]1CC[C@H]2O1 [Norcantharidin] + C=CCn1c(=O)c2cnc(Nc3ccc(N4CCN(C)CC4)cc3)nc2n1-c1cccc(C(C)(C)O)n1 [MK1775],inactive: -0.616
7,"O=c1[nH]c2cc(Cl)c(Cl)cc2[nH]c1=O [6,7-Dichloroquinoxaline-2,3-dione] + C=CCn1c(=O)c2cnc(Nc3ccc(N4CCN(C)CC4)cc3)nc2n1-c1cccc(C(C)(C)O)n1 [MK1775]",inactive: 1.79
8,CCCCC1(C2CCCC2)Cc2cc(OCC(=O)O)c(Cl)c(Cl)c2C1=O (stereo in doubt) [R(+)-Butylindazone] + C=CCn1c(=O)c2cnc(Nc3ccc(N4CCN(C)CC4)cc3)nc2n1-c1cccc(C(C)(C)O)n1 [MK1775],inactive: -0.449
9,Cn1cncc1[C@@](N)(c1ccc(Cl)cc1)c1ccc2c(c1)c(-c1cccc(Cl)c1)cc(=O)n2C [Tipifarnib (Zarnestra)] + C=CCn1c(=O)c2cnc(Nc3ccc(N4CCN(C)CC4)cc3)nc2n1-c1cccc(C(C)(C)O)n1 [MK1775],inactive: 0.0347
10,Cc1nnc(SCC2=C(C(=O)O)N3C(=O)[C@@H](NC(=O)Cn4cnnn4)[C@H]3SC2)s1 [Cefazolin sodium] + C=CCn1c(=O)c2cnc(Nc3ccc(N4CCN(C)CC4)cc3)nc2n1-c1cccc(C(C)(C)O)n1 [MK1775],inactive: 1.33
11,"CN1C2CCC1CC(NC(=O)c1nn(C)c3ccccc13)C2 (stereo not drawn) [LY-278,584 maleate] + C=CCn1c(=O)c2cnc(Nc3ccc(N4CCN(C)CC4)cc3)nc2n1-c1cccc(C(C)(C)O)n1 [MK1775]",inactive: -0.558
12,NCCCCN [Putrescine dihydrochloride] + C=CCn1c(=O)c2cnc(Nc3ccc(N4CCN(C)CC4)cc3)nc2n1-c1cccc(C(C)(C)O)n1 [MK1775],inactive: -0.252
13,O=C(NCCCNc1nc(Nc2cccc(NC(=O)N3CCCC3)c2)ncc1I)c1cccs1 + C=CCn1c(=O)c2cnc(Nc3ccc(N4CCN(C)CC4)cc3)nc2n1-c1cccc(C(C)(C)O)n1 [MK1775],inactive: -0.948
14,Nc1nnc(-c2cccc(Cl)c2Cl)c(N)n1 [Lamotrigine] + C=CCn1c(=O)c2cnc(Nc3ccc(N4CCN(C)CC4)cc3)nc2n1-c1cccc(C(C)(C)O)n1 [MK1775],inactive: -0.25
15,CC[C@@]1(O)C(=O)OCc2c1cc1n(c2=O)Cc2cc3c(CN(C)C)c(O)ccc3nc2-1 [Topotecan HCl] + C=CCn1c(=O)c2cnc(Nc3ccc(N4CCN(C)CC4)cc3)nc2n1-c1cccc(C(C)(C)O)n1 [MK1775],active: 2.94
16,O=C1c2ccccc2-c2nc3nonc3nc21 + C=CCn1c(=O)c2cnc(Nc3ccc(N4CCN(C)CC4)cc3)nc2n1-c1cccc(C(C)(C)O)n1 [MK1775],inactive: -0.83
17,Oc1cc(O)cc(/C=C/c2ccc(O)c(O)c2)c1 [Piceatannol] + C=CCn1c(=O)c2cnc(Nc3ccc(N4CCN(C)CC4)cc3)nc2n1-c1cccc(C(C)(C)O)n1 [MK1775],inactive: -0.378
18,Cc1cccc(C2CN(C)CCc3c2cc(O)c(O)c3Cl)c1 (stereo not drawn) + C=CCn1c(=O)c2cnc(Nc3ccc(N4CCN(C)CC4)cc3)nc2n1-c1cccc(C(C)(C)O)n1 [MK1775],inactive: 0.442
19,Cc1nc(N=Nc2cc(S(=O)(=O)O)c3cc([N+](=O)[O-])cc(S(=O)(=O)O)c3c2)c(COP(=O)(O)O)c(C=O)c1O [PPNDS tetrasodium] + C=CCn1c(=O)c2cnc(Nc3ccc(N4CCN(C)CC4)cc3)nc2n1-c1cccc(C(C)(C)O)n1 [MK1775],inactive: 0.99
20,CC(=O)O[C@]1(C(C)=O)CC[C@H]2[C@@H]3C=C(C)C4=CC(=O)CC[C@]4(C)[C@H]3CC[C@@]21C [Megestrol Acetate] + C=CCn1c(=O)c2cnc(Nc3ccc(N4CCN(C)CC4)cc3)nc2n1-c1cccc(C(C)(C)O)n1 [MK1775],inactive: 0.149
21,O=C(OCCN1CCCCC1)c1c[nH]c2ccccc12 + C=CCn1c(=O)c2cnc(Nc3ccc(N4CCN(C)CC4)cc3)nc2n1-c1cccc(C(C)(C)O)n1 [MK1775],inactive: 0.819
22,Cc1cccc(C)c1NC(=O)C[N+](C)(C)C [Lidocaine N-methyl hydrochloride] + C=CCn1c(=O)c2cnc(Nc3ccc(N4CCN(C)CC4)cc3)nc2n1-c1cccc(C(C)(C)O)n1 [MK1775],inactive: -0.77
23,CCCn1c(=O)c2[nH]c(-c3ccc(OCC(=O)NCCN)cc3)nc2n(CCC)c1=O [Xanthine amine congener] + C=CCn1c(=O)c2cnc(Nc3ccc(N4CCN(C)CC4)cc3)nc2n1-c1cccc(C(C)(C)O)n1 [MK1775],inactive: -1.15

# Reprinted at random: two entries already listed
row,SMILES,Z' of S-phase gammaH2AX difference (Z-score)
21,O=C(OCCN1CCCCC1)c1c[nH]c2ccccc12 + C=CCn1c(=O)c2cnc(Nc3ccc(N4CCN(C)CC4)cc3)nc2n1-c1cccc(C(C)(C)O)n1 [MK1775],inactive: 0.819
1,Cc1ccccc1N1CCN(S(=O)(=O)C[C@]23CC[C@H](CC2NC(=O)[C@@H](N)CCS(C)(=O)=O)C3(C)C)CC1 (stereo partly drawn) + C=CCn1c(=O)c2cnc(Nc3ccc(N4CCN(C)CC4)cc3)nc2n1-c1cccc(C(C)(C)O)n1 [MK1775],inactive: 0.109
